Experimental findings from the supplement of paper PMC6331611 are described below.

± gives the standard deviation of the averaged measurements. Whole data set: some 1,600 compounds, median “normalized growth (OD600, IQM-normalized) in LPM” near 1, cut for the lowest 2% near 0.014. The list shows a part of the results.

This experiment deals with Salmonella enterica serovar Typhimurium SL1344. The experiment in a line: normalized growth (OD600, IQM-normalized) in LPM (fraction of plate interquartile mean); higher = more bacterial growth (less inhibition). Conditions: LPM pH 5.8; 10 µM; 16 h.
Consider `O=[N+]([O-])O[C@@H]1CO[C@H]2[C@@H]1OC[C@@H]2O`, for which the normalized growth was found to be 1.11 ± 0.026.

Consider `N[C@@H](Cc1ccc(N(CCCl)CCCl)cc1)C(=O)O`, for which the normalized growth amounted to 1.63 ± 0.08.

`CC(C)N(CCC(C(N)=O)(c1ccccc1)c1ccccn1)C(C)C` (stereo not drawn): the normalized growth is 1.03 ± 0.031.

As to `C[C@H](N)[C@H](O)c1ccc(O)c(O)c1`, the normalized growth worked out at 1.07 ± 0.018.

`N=C(N)NN` returned a normalized growth of 0.993 ± 0.036.

`CN1[C@@H]2CC[C@H]1C[C@@H](OC(=O)[C@H](CO)c1ccccc1)C2`: the normalized growth was found to be 0.978 ± 0.068.

Regarding `Cc1ccc(-c2nc3ccc(C)cn3c2CC(=O)N(C)C)cc1`, the normalized growth amounted to 1.1 ± 0.059.

Regarding `Nc1nc(N)nc(NC2CC2)n1`, the normalized growth is 1.071 ± 0.009.

`Cc1cc(O)ccc1Cl`: the normalized growth stood at 0.902 ± 0.036.

`C=C(C)[C@H]1CN[C@H](C(=O)O)[C@H]1CC(=O)O` registered a normalized growth of 0.927 ± 0.031.

`COc1ccc(CN2CCNCC2)c(OC)c1OC` had a normalized growth of 1.06 ± 0.034.

For `CC[C@H]1CN2CC[C@H]1C[C@@H]2[C@@H](O)c1ccnc2ccc(OC)cc12`, the normalized growth came to 0.912 ± 0.022.

Consider `C=C[C@H]1CN2CC[C@H]1C[C@H]2[C@H](OC(=O)OCC)c1ccnc2ccc(OC)cc12`, for which the normalized growth is 1.05 ± 0.058.

`COP(=S)(OC)Oc1ccc(SC)c(C)c1` displayed a normalized growth of 0.918 ± 0.027.

Regarding `O=c1[nH]c2ccccc2n1CCCN1CCC(n2c(=O)[nH]c3cc(Cl)ccc32)CC1`, the normalized growth is 1.02 ± 0.14.

For `O=C([O-])c1ccccc1-c1c2cc(Br)c(=O)cc-2oc2[c]([Hg+])c([O-])c(Br)cc12.[Na+].[Na+].[OH-]`, the normalized growth is 1.11 ± 0.062.

In the case of `CC(C)[N+](C)(CCC(C(N)=O)(c1ccccc1)c1ccccc1)C(C)C`, the normalized growth turned out to be 1.02 ± 0.024.

`C#C[C@]1(O)CC[C@H]2[C@@H]3CCC4=CC(=O)CC[C@]4(C)[C@H]3CC[C@@]21C`: the normalized growth was determined as 1.11 ± 0.029.

In the case of `CC(C)CC(N(C)C)C1(c2ccc(Cl)cc2)CCC1` (stereo not drawn), the normalized growth was determined as 1.03 ± 0.036.

In the case of `O=C([O-])Cc1ccccc1.[Na+]`, the normalized growth came to 1.14 ± 0.026.

Compound `COc1ccc2c(c1)[C@]13CCCC[C@@H]1[C@H](C2)N(C)CC3` registered a normalized growth of 0.957 ± 0.1.

`C=C[C@H]1CN2CC[C@H]1C[C@H]2[C@H](O)c1ccnc2ccccc12` registered a normalized growth of 1.01 ± 0.043.

On to `C=CC[C@]1(O)CC[C@H]2[C@@H]3CCC4=CC(=O)CCC4=C3C=C[C@@]21C`, for which the normalized growth amounted to 1 ± 0.02.

With `CC(Cc1ccc(O)cc1)NCC(O)c1cc(O)cc(O)c1` (stereo not drawn), the normalized growth worked out at 1.087 ± 0.0059.

With `C=CCN=C=S`, the normalized growth worked out at 1.02 ± 0.02.

For the compound `C=C[C@H]1CN2CC[C@H]1C[C@@H]2[C@@H](O)c1ccnc2ccccc12`, the normalized growth was found to be 0.962 ± 0.079.

Compound `C1CCc2nnnn2CC1` came in with a normalized growth of 1.05 ± 0.015.

The compound `O=C1C=C2C=C[C@@H]3C[C@@]2(O1)[C@H]1CCCCN31` yielded a normalized growth of 1.36 ± 0.46.

In the case of `Oc1noc2c1CCNC2`, the normalized growth was found to be 0.948 ± 0.041.

For `CCCC(C)C1(CC)C(=O)NC(=S)NC1=O` (stereo not drawn), the normalized growth worked out at 1.01 ± 0.054.

In turn, `CC(C)=CC1C(C(=O)OCc2cccc(Oc3ccccc3)c2)C1(C)C` (stereo not drawn) registered a normalized growth of 0.894 ± 0.04.

On to `NC(=O)C[S@@+]([O-])C(c1ccccc1)c1ccccc1`, for which the normalized growth amounted to 1.07 ± 0.036.

In turn, `C[CH2][Hg][S]c1ccccc1C(=O)[O-].[Na+]` showed a normalized growth of 0.00984 ± 0.0003.

Compound `Nc1ccncc1` showed a normalized growth of 0.827 ± 0.09.

With `O=C(O[C@H]1C[C@H]2CC[C@@H](C1)[N+]21CCCC1)C(O)(c1ccccc1)c1ccccc1`, the normalized growth was determined as 0.916 ± 0.024.

As for `COc1ccc(C(=O)N2CCCC2=O)cc1`, the normalized growth came out at 0.999 ± 0.015.

In turn, `O=C(O)CCCc1ccc(N(CCCl)CCCl)cc1` returned a normalized growth of 1.1 ± 0.051.

For the compound `CC(C)(O)C(Cl)(Cl)Cl`, the normalized growth turned out to be 1 ± 0.032.

`Oc1cccc2cccnc12` gave a normalized growth of 1.032 ± 0.0034.

`CCCN1C[C@H](CSC)C[C@@H]2c3cccc4[nH]cc(c34)C[C@H]21` registered a normalized growth of 1.02 ± 0.024.

`N.N.[Cl][Pt][Cl]` had a normalized growth of 1.1 ± 0.045.

Consider `CNc1ccc(C(=O)CC(O)CCC(C)C2OC(=O)CC(O)CC(=O)CC(O)CC(O)CC(O)CC(O)CC3(O)CC(O)C(C(=O)OC)C(CC(O[C@@H]4O[C@H](C)[C@@H](O)[C@H](N)[C@@H]4O)/C=C/C=C/C=C/C=C/C=C/C=C/C=C/C2C)O3)cc1.COC(=O)C1C(O)CC2(O)CC(O)CC(O)CC(O)CC(O)CC(=O)CC(O)CC(=O)OC(C(C)CCC(O)CC(=O)c3ccc(N)cc3)C(C)/C=C/C=C/C=C/C=C/C=C/C=C/C=C/C(O[C@@H]3O[C@H](C)[C@@H](O)[C@H](N)[C@@H]3O)CC1O2` (stereo partly drawn), for which the normalized growth is 1.06 ± 0.03.

Compound `Cc1ncc(CNC(=O)N(CCCl)N=O)c(N)n1` had a normalized growth of 0.807 ± 0.044.

The compound `NCCc1cc(O)c(O)cc1O` gave a normalized growth of 1.08 ± 0.043.

As for `O=C1C[C@@H]2OCC=C3CN4CC[C@]56c7ccccc7N1[C@H]5[C@H]2[C@H]3C[C@H]46`, the normalized growth was 1.07 ± 0.019.

As for `N#Cc1nn(-c2c(Cl)cc(C(F)(F)F)cc2Cl)c(N)c1[S+]([O-])C(F)(F)F` (stereo not drawn), the normalized growth came out at 1.15 ± 0.017.

As for `CC(CCc1ccccc1)NC(C)C(O)c1ccc(O)cc1` (stereo not drawn), the normalized growth amounted to 0.974 ± 0.044.

Consider `COc1cccc(C2(O)CCCCC2CN(C)C)c1` (stereo not drawn), for which the normalized growth worked out at 0.904 ± 0.038.

Compound `CC(=O)OC1CN2CCC1CC2` (stereo not drawn) had a normalized growth of 0.925 ± 0.072.

Turning to `C[N+](C)(C)CCCCCCCCCC[N+](C)(C)C`, the normalized growth amounted to 1.07 ± 0.079.

Compound `c1ccc2nc(N3CCNCC3)ccc2c1` came in with a normalized growth of 1.07 ± 0.047.

In the case of `CN1C[C@H](C(=O)N[C@]2(C)O[C@@]3(O)[C@@H]4CCCN4C(=O)[C@H](Cc4ccccc4)N3C2=O)C[C@@H]2c3cccc4[nH]cc(c34)C[C@H]21`, the normalized growth worked out at 0.935 ± 0.021.

The compound `C[N+]1(C)[C@@H]2CC[C@H]1C[C@@H](OC(=O)C(CO)c1ccccc1)C2` (stereo partly drawn) displayed a normalized growth of 1.09 ± 0.038.
